According to patent publication US9211294B2, “Phenothiazine compounds for treating mild cognitive impairment” (WisTa Laboratories Ltd., priority 2007, dated 2015):
Structures can show the parent of a compound that is named as a salt.

Key:
[1] = system: scopolamine-treated NMRI mice; assay: Morris water maze spatial reference memory task, reversal of scopolamine-induced cognitive deficits; assay type: in vivo
Description: Female, NMRI mice aged 3-4 months were from Harlan, UK.
Mice were group housed (7-9 per cage) and maintained with light from 7 am-7 pm and experiments carried out in the light phase. […] They were separated into 6 groups to receive drug administrations as follows:
The injection volume for drugs was 0.2 ml per 30 g animal weight and they were injected intraperitoneally. The doses were as indicated above.
The water maze consisted of a water-filled pool (1.5 m diameter; 20±2° C.) in which a platform submerged 1 cm below water surface was the only means of escape. Mice were released from 4 cardinal sites (South, West, North and East) facing the wall of the pool in random fashion and thus had to acquire spatial knowledge of the exact platform location by spatial mapping procedures using distal cues.
Each animal was given 6 trials/day and was allowed to swim for a maximum time of 60 seconds and stay 30 seconds on the platform. […] An inter-trial interval of 10-20 minutes was given. The animals were trained for 4 consecutive days and received probe trials (free swim for 60 seconds without platform in the pool) approximately 1.5 and 24 hours post-training to test short and long-term memory, respectively. The behaviour of animals was recorded via an overhead camera and data transmitted to the PC for online storage and analysis (EthoVision basic version 3.0.8. Noldus Information Technology, Netherlands).
Probe trial data were analysed by one-way ANOVA and the appropriate post-hoc tests (Bonferroni's multiple comparison test or Newman Keuls) were carried out to determine the source of a significant main effect or interaction. Analyses were performed two-tailed and the null hypothesis was […] at probability levels of 5% (p<0.05). Only terms for reliable differences are mentioned in the text for simplicity.

[2] = following i.p. administration (Kim et al., 2006; Janas et al., 2005); cited from earlier work
[3] = scopolamine (0.5) then vehicle, mg/kg i.p., hydrobromide

CN1[C@@H]2C[C@@H](OC(=O)[C@H](CO)c3ccccc3)C[C@H]1[C@@H]1O[C@@H]12 [scopolamine, scopolamine hydrobromide]
thigmotaxis during memory phase ([1]; scopolamine 0.5 mg/kg then saline, relative to saline-treated controls (not significant)): increased thigmotaxis
proportion of time spent in target quadrant (probe trials) ([1]; scopolamine 0.5 mg/kg then saline, versus 25% chance): no better than chance
Learning [1, 3]: did not learn the task and learning deficit and ↓
Thigmotaxis [1, 3]: differed from controls and ↓
S-T memory ([1]; scopolamine (0.5) then vehicle, mg/kg i.p., probe 1.5 h, hydrobromide): memory deficit and ↓
Tmax [2]: 20 to 40 min
